The text below walks through data of patent US20140193439A1.

Sequences of proteins named here, by UniProt entry; tags and fusion partners are left off.
UniProt Q13261: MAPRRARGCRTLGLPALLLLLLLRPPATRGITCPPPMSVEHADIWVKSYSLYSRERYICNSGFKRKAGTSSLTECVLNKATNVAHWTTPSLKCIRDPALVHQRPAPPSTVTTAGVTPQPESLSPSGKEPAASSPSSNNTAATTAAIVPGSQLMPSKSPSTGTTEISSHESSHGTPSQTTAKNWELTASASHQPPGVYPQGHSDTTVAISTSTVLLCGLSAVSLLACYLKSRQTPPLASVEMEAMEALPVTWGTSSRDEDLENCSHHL

The target in one test is T1, murine IL-15 (mouse) (UniProt P48346).
T1 sequence (looked up): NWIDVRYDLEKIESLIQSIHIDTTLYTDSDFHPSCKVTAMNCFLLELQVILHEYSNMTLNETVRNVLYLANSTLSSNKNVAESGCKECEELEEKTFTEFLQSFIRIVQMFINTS
As to the kind of experiment: co-immunoprecipitation with anti-mouse IL-15 antibody (FIG. 7A).

The target in test [1] is in vitro translated [35S]-methionine labeled human IL-15Rα protein (from pVAX1-IL-15Rα) (human) (UniProt Q13261). Described as above.

These are yes or no findings as the source states them, for the method shown. In cells and extracts the contact can be indirect. Some results given as binding are weak or reduced against the parent protein; the word gives no strength.

For “in vitro translated [35S]-methionine labeled human IL-15Rα protein (from pVAX1-IL-15Rα) (from UniProt Q13261 1-267) (receptor)”, the binding entry with murine IL-15 (mouse) was “binds”.

B1: murine IL-15 (ligand, mouse, UniProt P48346 49-162, looked up)
chain: T1 sequence (looked up)
B1: the binding result in test [1] is recorded as “binds”.
